Test results reported in the supplement of paper PMC12067093, “Discovery and optimisation of a covalent ligand for TRIM25 and its application to targeted protein ubiquitination” (Chemical Science, 2025).
The list shows a part of the results.

Protein sequences, listed by entry. Tags and fused reporters are not part of them. Lines headed by an entry give the natural chain unless they say otherwise; changes in a name come on top.
UniProt Q86UT6, whole entry, looked up: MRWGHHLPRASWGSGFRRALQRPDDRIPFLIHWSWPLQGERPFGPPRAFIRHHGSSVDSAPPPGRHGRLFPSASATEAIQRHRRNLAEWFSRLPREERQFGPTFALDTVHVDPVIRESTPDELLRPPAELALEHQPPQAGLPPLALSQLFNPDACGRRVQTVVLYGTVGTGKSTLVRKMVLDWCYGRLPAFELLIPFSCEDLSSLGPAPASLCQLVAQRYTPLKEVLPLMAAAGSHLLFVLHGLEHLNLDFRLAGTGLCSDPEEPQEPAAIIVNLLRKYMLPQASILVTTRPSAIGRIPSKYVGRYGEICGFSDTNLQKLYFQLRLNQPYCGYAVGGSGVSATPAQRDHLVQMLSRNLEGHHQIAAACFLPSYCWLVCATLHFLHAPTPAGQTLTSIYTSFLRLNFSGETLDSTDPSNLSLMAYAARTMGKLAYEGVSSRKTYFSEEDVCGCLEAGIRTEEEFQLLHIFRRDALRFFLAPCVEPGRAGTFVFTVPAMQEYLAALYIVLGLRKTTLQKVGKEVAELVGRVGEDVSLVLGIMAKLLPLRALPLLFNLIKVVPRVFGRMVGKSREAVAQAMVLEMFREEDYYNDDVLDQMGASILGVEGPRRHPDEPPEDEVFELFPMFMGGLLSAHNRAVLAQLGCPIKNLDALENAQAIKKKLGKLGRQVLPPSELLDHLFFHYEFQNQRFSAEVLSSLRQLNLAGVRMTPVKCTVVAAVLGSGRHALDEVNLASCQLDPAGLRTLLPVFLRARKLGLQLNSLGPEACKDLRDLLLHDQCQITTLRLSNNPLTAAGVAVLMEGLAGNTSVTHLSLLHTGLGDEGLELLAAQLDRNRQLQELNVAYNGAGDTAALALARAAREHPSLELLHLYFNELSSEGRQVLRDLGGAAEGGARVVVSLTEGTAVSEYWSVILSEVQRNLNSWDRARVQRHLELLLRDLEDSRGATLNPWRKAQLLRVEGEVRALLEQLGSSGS
UniProt Q9H6R4: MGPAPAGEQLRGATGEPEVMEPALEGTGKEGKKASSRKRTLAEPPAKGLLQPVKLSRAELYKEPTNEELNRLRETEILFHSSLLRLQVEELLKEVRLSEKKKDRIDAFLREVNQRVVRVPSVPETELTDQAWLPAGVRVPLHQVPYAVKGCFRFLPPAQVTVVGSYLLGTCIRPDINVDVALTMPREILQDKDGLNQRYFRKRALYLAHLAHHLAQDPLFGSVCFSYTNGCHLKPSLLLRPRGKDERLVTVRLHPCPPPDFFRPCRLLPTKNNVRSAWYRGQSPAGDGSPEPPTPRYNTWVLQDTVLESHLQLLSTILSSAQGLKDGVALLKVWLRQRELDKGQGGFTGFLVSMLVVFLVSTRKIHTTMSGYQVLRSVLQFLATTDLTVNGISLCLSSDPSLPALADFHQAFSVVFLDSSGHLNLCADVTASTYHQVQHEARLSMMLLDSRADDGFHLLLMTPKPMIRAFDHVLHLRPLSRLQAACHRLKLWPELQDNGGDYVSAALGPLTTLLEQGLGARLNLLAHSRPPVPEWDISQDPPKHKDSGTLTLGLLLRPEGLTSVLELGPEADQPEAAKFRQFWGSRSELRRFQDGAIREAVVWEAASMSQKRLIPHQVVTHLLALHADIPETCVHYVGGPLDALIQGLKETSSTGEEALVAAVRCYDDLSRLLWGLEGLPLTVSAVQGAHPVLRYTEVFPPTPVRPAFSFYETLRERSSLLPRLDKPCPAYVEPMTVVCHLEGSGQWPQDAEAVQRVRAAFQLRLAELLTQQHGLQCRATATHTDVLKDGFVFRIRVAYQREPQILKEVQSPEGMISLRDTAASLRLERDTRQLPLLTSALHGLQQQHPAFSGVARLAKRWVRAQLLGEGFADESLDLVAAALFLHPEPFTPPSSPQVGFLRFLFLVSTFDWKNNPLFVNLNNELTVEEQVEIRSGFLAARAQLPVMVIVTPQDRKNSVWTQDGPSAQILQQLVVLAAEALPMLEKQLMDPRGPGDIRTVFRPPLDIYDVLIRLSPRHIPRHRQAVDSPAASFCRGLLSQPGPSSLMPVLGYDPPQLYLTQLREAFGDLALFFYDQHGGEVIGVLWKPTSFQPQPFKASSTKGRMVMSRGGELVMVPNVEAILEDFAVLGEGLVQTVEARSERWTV
UniProt Q96T66: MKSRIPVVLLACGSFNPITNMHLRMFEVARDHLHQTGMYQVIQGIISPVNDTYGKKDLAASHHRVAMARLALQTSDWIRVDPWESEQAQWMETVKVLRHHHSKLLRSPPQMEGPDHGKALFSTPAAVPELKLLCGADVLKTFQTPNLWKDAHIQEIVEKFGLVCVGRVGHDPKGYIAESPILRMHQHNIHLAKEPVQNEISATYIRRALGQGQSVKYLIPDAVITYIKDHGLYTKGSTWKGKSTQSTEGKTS
UniProt O75052: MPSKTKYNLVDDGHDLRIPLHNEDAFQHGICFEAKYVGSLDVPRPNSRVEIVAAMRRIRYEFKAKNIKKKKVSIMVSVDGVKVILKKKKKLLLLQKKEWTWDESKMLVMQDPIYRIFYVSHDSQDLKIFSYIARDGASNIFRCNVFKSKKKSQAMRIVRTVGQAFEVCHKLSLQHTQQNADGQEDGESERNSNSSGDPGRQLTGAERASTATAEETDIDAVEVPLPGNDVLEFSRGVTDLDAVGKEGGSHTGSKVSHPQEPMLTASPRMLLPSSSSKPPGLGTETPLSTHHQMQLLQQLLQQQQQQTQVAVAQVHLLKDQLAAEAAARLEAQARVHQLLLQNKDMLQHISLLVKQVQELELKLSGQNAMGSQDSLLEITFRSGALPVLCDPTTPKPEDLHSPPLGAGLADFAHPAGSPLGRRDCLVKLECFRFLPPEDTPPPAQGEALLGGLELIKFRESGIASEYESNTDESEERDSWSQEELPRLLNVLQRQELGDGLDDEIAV
UniProt Q15818: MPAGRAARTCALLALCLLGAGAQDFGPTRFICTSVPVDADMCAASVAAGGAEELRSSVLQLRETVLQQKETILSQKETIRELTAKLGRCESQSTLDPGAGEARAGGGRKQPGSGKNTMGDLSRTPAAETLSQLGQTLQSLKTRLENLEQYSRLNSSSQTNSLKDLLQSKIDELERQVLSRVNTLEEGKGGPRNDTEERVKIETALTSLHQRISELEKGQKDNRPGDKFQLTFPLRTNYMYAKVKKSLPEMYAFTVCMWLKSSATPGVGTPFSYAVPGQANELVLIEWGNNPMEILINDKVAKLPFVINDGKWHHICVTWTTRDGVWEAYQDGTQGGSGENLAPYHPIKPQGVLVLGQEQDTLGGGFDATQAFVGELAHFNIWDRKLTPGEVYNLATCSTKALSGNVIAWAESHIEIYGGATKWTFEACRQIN
UniProt P06748, whole entry: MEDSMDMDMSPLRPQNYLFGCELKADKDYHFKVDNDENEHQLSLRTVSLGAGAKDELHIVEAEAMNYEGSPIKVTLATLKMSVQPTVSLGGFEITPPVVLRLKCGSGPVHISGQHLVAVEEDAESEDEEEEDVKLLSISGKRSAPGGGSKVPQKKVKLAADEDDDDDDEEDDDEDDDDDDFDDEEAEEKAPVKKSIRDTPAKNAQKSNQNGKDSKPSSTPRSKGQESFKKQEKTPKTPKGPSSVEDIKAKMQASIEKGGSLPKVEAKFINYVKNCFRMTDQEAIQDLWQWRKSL
UniProt Q04721: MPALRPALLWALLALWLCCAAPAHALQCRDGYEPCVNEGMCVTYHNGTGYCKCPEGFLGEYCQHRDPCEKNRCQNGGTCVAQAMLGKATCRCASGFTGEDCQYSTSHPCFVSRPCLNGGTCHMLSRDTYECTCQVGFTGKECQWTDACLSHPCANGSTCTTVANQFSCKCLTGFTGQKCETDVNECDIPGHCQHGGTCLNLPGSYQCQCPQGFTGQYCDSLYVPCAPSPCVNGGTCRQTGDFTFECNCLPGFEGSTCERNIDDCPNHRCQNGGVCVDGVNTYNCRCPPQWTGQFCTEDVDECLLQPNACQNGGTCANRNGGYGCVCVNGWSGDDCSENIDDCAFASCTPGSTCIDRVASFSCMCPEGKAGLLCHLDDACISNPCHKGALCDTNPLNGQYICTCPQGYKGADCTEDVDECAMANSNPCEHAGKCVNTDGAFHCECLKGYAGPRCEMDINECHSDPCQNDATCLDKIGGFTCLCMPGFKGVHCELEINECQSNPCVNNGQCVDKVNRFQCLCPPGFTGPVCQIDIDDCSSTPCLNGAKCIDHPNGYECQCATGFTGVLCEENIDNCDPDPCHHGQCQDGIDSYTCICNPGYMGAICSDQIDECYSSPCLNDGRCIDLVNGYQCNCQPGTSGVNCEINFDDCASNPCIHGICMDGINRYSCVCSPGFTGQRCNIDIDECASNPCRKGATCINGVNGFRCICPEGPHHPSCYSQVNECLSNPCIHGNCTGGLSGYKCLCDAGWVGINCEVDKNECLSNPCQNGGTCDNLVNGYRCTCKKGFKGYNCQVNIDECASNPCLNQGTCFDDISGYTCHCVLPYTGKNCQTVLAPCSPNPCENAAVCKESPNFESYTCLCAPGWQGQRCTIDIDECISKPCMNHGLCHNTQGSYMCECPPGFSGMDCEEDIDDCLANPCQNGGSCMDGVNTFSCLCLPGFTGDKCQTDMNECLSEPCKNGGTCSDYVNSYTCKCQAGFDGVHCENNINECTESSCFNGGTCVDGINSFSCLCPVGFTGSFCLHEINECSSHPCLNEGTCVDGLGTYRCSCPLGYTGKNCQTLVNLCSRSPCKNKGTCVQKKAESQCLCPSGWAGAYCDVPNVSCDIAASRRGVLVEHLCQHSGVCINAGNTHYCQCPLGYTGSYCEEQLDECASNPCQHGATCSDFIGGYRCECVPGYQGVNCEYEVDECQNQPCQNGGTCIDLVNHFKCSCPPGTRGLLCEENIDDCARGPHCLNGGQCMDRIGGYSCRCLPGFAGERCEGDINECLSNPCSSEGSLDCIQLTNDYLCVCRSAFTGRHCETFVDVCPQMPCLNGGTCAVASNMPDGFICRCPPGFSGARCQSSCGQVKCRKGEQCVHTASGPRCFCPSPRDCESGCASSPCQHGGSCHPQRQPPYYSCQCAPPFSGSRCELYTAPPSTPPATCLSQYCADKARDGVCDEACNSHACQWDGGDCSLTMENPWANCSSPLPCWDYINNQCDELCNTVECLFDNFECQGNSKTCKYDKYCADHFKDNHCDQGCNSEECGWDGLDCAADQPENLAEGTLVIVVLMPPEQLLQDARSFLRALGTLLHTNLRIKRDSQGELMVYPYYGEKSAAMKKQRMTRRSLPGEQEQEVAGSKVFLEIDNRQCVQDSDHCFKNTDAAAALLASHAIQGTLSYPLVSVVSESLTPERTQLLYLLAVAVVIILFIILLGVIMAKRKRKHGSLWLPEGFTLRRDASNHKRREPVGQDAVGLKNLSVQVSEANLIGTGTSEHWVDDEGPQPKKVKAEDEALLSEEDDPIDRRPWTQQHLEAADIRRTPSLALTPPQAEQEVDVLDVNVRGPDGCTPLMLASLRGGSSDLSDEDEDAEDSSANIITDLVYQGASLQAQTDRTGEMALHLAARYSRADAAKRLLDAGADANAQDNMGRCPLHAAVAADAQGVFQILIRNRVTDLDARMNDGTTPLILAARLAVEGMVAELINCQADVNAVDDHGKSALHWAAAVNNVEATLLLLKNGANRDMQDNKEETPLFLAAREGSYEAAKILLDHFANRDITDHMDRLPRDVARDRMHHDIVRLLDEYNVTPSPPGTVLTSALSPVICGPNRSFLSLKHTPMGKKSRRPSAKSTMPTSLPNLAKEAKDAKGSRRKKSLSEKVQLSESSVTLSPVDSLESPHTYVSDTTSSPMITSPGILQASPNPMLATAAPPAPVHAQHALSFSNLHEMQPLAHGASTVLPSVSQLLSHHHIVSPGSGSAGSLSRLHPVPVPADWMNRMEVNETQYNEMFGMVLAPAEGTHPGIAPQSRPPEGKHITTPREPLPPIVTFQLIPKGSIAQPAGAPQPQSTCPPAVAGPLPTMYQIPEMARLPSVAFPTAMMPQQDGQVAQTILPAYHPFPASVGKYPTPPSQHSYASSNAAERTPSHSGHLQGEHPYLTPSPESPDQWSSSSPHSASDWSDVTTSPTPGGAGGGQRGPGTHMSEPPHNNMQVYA
UniProt Q9UK39: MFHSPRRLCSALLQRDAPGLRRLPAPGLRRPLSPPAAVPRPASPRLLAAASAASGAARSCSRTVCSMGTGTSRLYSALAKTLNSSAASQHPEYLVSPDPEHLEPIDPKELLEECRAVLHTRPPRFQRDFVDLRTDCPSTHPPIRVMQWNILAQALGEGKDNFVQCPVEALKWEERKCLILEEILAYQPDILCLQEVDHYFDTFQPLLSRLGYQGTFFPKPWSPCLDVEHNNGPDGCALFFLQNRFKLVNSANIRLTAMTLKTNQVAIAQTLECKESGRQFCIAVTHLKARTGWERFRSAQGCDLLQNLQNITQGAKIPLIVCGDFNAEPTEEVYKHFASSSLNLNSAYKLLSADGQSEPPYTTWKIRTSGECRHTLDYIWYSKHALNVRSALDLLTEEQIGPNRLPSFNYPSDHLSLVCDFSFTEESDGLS

Compound: CC1Cc2ccccc2N1C(=O)C1CCCN(C1)C(=O)CCl (mixture of isomers) [TRIM25 ligand 11 (diastereomer mixture)]
Experiment: probe-labelled cysteine peptide fold change vs DMSO (competition) (log2 fold change); higher = less target engagement (more negative = stronger competition)
Conditions: 10 µM; THP-1; incubation time: 4 h
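Also: competitive chemoproteomic profiling in live THP-1 cells with an iodoacetamide desthiobiotin (IA-DTB) probe, comparing probe-labelled peptide intensities in compound-treated cells against DMSO-treated controls.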

Target	probe-labelled cysteine peptide fold change
NSUN2_Q08J23_502_DGVCGPPPSK (UniProt Q08J23)	0.0572
NOTCH1_P46531_1295_VNDFHCECR (UniProt P46531)	-0.0731
NSF_P46459_11+21_CPTDELSLTNCAVVNEK (UniProt P46459)	0.00668
NSD3_Q9BZ95_495_CNMSPVVK (UniProt Q9BZ95)	-0.201
NLRP2_Q9NX02_929_SSLLCLDLGLNHIGVK (UniProt Q9NX02)	-0.046
NSD1_Q96L73_1689_ILASNSIICPNHFTPR (UniProt Q96L73)	0.00705
NOP58_Q9Y2X3_205_IISDNLTYCK (UniProt Q9Y2X3)	0.063
NT5C3A_Q9H0P0_73_IKNPTRVEEIICGLIK (UniProt Q9H0P0)	-0.102
NLRX1_Q86UT6_779_DLRDLLLHDQCQITTLR (UniProt Q86UT6)	-0.173
NPC1_O15118_42_RYNCEYSGPPKPLPK (UniProt O15118)	0.0384
NKRF_O15226_37_HLSTCDGQNPPKK (UniProt O15226)	0.014
NLRX1_Q86UT6_767_LGLQLNSLGPEACK (UniProt Q86UT6)	0.0211
NPM3_O75607_79_VEEEDDAEHVLALTMLCLTEGAKDECNVVEVVAR (UniProt O75607)	-0.083
NSUN2_Q08J23_221_CYLLVHQAK (UniProt Q08J23)	-0.00755
NOL9_Q5SY16_379_MVYYGKPSCK (UniProt Q5SY16)	-0.221
NSUN2_Q08J23_599_NNSGEEFDCAFR (UniProt Q08J23)	0.0552
NOP2_P46087_463_VLLDAPCSGTGVISK (UniProt P46087)	0.0346
NSD2_O96028_899_WWPAEVCHPK (UniProt O96028)	0.0454

Target	probe-labelled cysteine peptide fold change
NOL6_Q9H6R4_665_CYDDLSR (UniProt Q9H6R4)	0.115
NMNAT3_Q96T66_12_IPVVLLACGSFNPITNMHLR (UniProt Q96T66)	0.124
NOS1AP_O75052_31_IPLHNEDAFQHGICFEAK (UniProt O75052)	-0.0491
NPLOC4_Q8TAT6_138_CVHCVPLEPFDEDYLNHLEPPVK (UniProt Q8TAT6)	0.163
NOL6_Q9H6R4_256+265_LHPCPPPDFFRPCR (UniProt Q9H6R4)	0.00764
NPEPL1_Q8NDH3_414_CGDLVHPLVYCPELHFSEFTSAVADMK (UniProt Q8NDH3)	0.0209
NOP9_Q86U38_138_TVACHR (UniProt Q86U38)	0.12
NPTX1_Q15818_89_CESQSTLDPGAGEAR (UniProt Q15818)	-0.269
NOL8_Q76FK4_630_HEDPSIISMEDGSPYVNGSLGEVTPCQHAK (UniProt Q76FK4)	0.00702
NSD3_Q9BZ95_729_HFHLECLGLASLPDSK (UniProt Q9BZ95)	0.0205
NSD1_Q96L73_2508_GCVSDPLQTSGK (UniProt Q96L73)	-0.0099
NPM1_P06748_21_MEDSMDMDMSPLRPQNYLFGCELK (UniProt P06748)	-0.279
NOTCH2_Q04721_1966_LAVEGMVAELINCQADVNAVDDHGK (UniProt Q04721)	0.268
NOL11_Q9H8H0_286_ECLSVWNIK (UniProt Q9H8H0)	0.0424
NLRP3_Q96P20_941_LLCEGLLHPDCK (UniProt Q96P20)	-0.00499
NOCT_Q9UK39_322_IPLIVCGDFNAEPTEEVYK (UniProt Q9UK39)	-0.203
NOC2L_Q9Y3T9_585_VQENSAYICSR (UniProt Q9Y3T9)	-0.11

Same assay, conditions: 50 µM; THP-1; incubation time: 4 h

Target	probe-labelled cysteine peptide fold change
NSUN2_Q08J23_502_DGVCGPPPSK (UniProt Q08J23)	0.0322
NOTCH1_P46531_1295_VNDFHCECR (UniProt P46531)	-0.0244
NSF_P46459_11+21_CPTDELSLTNCAVVNEK (UniProt P46459)	-0.163
NSD3_Q9BZ95_495_CNMSPVVK (UniProt Q9BZ95)	-0.444
NLRP2_Q9NX02_929_SSLLCLDLGLNHIGVK (UniProt Q9NX02)	0.0929
NSD1_Q96L73_1689_ILASNSIICPNHFTPR (UniProt Q96L73)	-0.17
NOP58_Q9Y2X3_205_IISDNLTYCK (UniProt Q9Y2X3)	0.067
NT5C3A_Q9H0P0_73_IKNPTRVEEIICGLIK (UniProt Q9H0P0)	-0.238
NLRX1_Q86UT6_779_DLRDLLLHDQCQITTLR (UniProt Q86UT6)	-0.114
NPC1_O15118_42_RYNCEYSGPPKPLPK (UniProt O15118)	0.059
NKRF_O15226_37_HLSTCDGQNPPKK (UniProt O15226)	-0.342
NLRX1_Q86UT6_767_LGLQLNSLGPEACK (UniProt Q86UT6)	-0.0473
NPM3_O75607_79_VEEEDDAEHVLALTMLCLTEGAKDECNVVEVVAR (UniProt O75607)	0.00371
NSUN2_Q08J23_221_CYLLVHQAK (UniProt Q08J23)	0.0474
NOL9_Q5SY16_379_MVYYGKPSCK (UniProt Q5SY16)	-0.163
NSUN2_Q08J23_599_NNSGEEFDCAFR (UniProt Q08J23)	0.0242
NOP2_P46087_463_VLLDAPCSGTGVISK (UniProt P46087)	-0.0126
NSD2_O96028_899_WWPAEVCHPK (UniProt O96028)	0.00563

Target	probe-labelled cysteine peptide fold change
NOL6_Q9H6R4_665_CYDDLSR (UniProt Q9H6R4)	7.13e-05
NMNAT3_Q96T66_12_IPVVLLACGSFNPITNMHLR (UniProt Q96T66)	-0.224
NOS1AP_O75052_31_IPLHNEDAFQHGICFEAK (UniProt O75052)	0.0277
NPLOC4_Q8TAT6_138_CVHCVPLEPFDEDYLNHLEPPVK (UniProt Q8TAT6)	0.169
NOL6_Q9H6R4_256+265_LHPCPPPDFFRPCR (UniProt Q9H6R4)	-0.0545
NPEPL1_Q8NDH3_414_CGDLVHPLVYCPELHFSEFTSAVADMK (UniProt Q8NDH3)	-0.363
NOP9_Q86U38_138_TVACHR (UniProt Q86U38)	0.201
NPTX1_Q15818_89_CESQSTLDPGAGEAR (UniProt Q15818)	0.111
NOL8_Q76FK4_630_HEDPSIISMEDGSPYVNGSLGEVTPCQHAK (UniProt Q76FK4)	-0.325
NSD3_Q9BZ95_729_HFHLECLGLASLPDSK (UniProt Q9BZ95)	-0.104
NSD1_Q96L73_2508_GCVSDPLQTSGK (UniProt Q96L73)	-0.228
NPM1_P06748_21_MEDSMDMDMSPLRPQNYLFGCELK (UniProt P06748)	-0.642
NOTCH2_Q04721_1966_LAVEGMVAELINCQADVNAVDDHGK (UniProt Q04721)	0.124
NOL11_Q9H8H0_286_ECLSVWNIK (UniProt Q9H8H0)	0.13
NLRP3_Q96P20_941_LLCEGLLHPDCK (UniProt Q96P20)	-0.0623
NOCT_Q9UK39_322_IPLIVCGDFNAEPTEEVYK (UniProt Q9UK39)	-0.0146
NOC2L_Q9Y3T9_585_VQENSAYICSR (UniProt Q9Y3T9)	-0.431
